This passage reports binding results from PMC11427839.

The assay concerns the target T1, TIR1 fused to nLUC (UniProt Q570C0).
T1 sequence: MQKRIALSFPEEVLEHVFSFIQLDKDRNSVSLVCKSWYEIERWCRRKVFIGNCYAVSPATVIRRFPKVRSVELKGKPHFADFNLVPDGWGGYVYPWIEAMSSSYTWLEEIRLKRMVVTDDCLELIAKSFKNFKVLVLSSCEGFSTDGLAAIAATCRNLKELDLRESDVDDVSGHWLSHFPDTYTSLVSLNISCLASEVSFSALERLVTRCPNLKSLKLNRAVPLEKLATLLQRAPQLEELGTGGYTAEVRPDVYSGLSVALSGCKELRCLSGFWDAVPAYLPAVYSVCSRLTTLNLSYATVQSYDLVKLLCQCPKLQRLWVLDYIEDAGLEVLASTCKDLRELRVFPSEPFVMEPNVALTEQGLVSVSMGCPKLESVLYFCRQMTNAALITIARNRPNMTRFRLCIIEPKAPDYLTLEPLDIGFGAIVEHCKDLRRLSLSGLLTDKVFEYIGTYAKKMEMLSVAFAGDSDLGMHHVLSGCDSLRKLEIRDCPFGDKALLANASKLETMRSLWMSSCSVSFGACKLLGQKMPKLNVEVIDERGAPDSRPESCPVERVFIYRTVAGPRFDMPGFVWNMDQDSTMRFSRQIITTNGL
The assay is described as follows: split reporter; split-luciferase complementation in tobacco; IAA13-cLUC (JW771) and TIR1-nLUC (JW772) vectors transferred together; imaged with NightSHADE EVO LB 985N after 60 h of growth in darkness.

No constants are given. Whether binding was seen depends on the method and setting. In cells and extracts the contact can be indirect. Binding calls can cover weak binding; strength is not graded here. Sequences can lack the tags named with a protein.

Consider “BnaA03.iaa13 (mutated protein of the EMS mutant T16: G79E, E160K) fused to cLUC (Brassica napus (rapeseed))”, for which the binding entry is given as “no binding”.

Regarding “BnaA03.IAA13 (wild type, from ZS11) fused to cLUC (Brassica napus (rapeseed))”, the binding result is “binds”.
